These are yes or no findings as the source states them, for the method shown.
Legend:
[1] = molecular target: T1, bipartite NLS (bpNLS) from the nucleoplasmin; assay: fluorescence polarisation; both purified
T1 sequence (peptide): KRPAATKKAGQAKKKK

Sequences of proteins named here, by UniProt entry; tags and fusion partners are left off. Residues count along the entry.
UniProt Q05322, residues 11-237: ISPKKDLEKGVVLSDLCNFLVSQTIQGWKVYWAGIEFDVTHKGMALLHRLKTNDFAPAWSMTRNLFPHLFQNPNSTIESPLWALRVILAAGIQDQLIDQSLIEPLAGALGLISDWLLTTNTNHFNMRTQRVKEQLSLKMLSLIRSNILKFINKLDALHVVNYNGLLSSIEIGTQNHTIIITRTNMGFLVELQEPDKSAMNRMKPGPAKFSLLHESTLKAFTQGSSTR

[2] = molecular target: T2, monopartite NLS peptide (mpNLS) from the SV40 large T antigen (SV40); assay: fluorescence polarisation; both purified
T2 sequence (peptide, N-terminal fluorescein label (fluorescein-Ahx-)): STPPKKKRKVE

Substance: Ebola VP24 aa 11–237 (from UniProt Q05322 11-237) (domain or fragment)
- binding [1]: no binding
- binding [2]: no binding

Reference: publication PMC12390655 (Viruses, 2025)
